Test results: ChEMBL document CHEMBL4513143, “CO-ADD screening of University of Natural Resources and Life (Austria) compounds”
The other results are listed elsewhere or left out. Entries with a potency or affinity are not part of this list.

These compounds were tested on Pseudomonas aeruginosa. Conditions: Concentration 32 ug.mL-1; ASSAY_TEST Inhibition of Bacterial Growth; detection method Absorption (OD600); MEDIA CAMHB; plate type 384well; NBS; CORNING #3640; time 18 hr.

Structure (SMILES)	Inhibition
[N-]=[N+]=NC[C@H]1OC(O)[C@@H](O)[C@@H]1O (stereo partly specified)	1.65%
